Earlier results, collected in patent publication US8883408B2, “Tissue implants for implantation and methods of preparing the same” (CryoLife, Inc., priority 2010, dated 2014).
At least one compound was matched to its structure with a doubt left.

Test system: sensitive bacteria
Settings: literature review

In the case of C[C@H]1COc2c(N3CCN(C)CC3)c(F)cc3c(=O)c(C(=O)O)cn1c23 [levofloxacin], the “minimum inhibitory concentration against sensitive bacteria (MIC) range” value is given as 0.03 to 32 µg/mL.
